# The list shows a part of the results.
# Chains of the proteins cited; added tags and fusions are not shown. Lines headed by an entry give the natural chain unless they say otherwise; changes in a name come on top.
# UniProt Q14676: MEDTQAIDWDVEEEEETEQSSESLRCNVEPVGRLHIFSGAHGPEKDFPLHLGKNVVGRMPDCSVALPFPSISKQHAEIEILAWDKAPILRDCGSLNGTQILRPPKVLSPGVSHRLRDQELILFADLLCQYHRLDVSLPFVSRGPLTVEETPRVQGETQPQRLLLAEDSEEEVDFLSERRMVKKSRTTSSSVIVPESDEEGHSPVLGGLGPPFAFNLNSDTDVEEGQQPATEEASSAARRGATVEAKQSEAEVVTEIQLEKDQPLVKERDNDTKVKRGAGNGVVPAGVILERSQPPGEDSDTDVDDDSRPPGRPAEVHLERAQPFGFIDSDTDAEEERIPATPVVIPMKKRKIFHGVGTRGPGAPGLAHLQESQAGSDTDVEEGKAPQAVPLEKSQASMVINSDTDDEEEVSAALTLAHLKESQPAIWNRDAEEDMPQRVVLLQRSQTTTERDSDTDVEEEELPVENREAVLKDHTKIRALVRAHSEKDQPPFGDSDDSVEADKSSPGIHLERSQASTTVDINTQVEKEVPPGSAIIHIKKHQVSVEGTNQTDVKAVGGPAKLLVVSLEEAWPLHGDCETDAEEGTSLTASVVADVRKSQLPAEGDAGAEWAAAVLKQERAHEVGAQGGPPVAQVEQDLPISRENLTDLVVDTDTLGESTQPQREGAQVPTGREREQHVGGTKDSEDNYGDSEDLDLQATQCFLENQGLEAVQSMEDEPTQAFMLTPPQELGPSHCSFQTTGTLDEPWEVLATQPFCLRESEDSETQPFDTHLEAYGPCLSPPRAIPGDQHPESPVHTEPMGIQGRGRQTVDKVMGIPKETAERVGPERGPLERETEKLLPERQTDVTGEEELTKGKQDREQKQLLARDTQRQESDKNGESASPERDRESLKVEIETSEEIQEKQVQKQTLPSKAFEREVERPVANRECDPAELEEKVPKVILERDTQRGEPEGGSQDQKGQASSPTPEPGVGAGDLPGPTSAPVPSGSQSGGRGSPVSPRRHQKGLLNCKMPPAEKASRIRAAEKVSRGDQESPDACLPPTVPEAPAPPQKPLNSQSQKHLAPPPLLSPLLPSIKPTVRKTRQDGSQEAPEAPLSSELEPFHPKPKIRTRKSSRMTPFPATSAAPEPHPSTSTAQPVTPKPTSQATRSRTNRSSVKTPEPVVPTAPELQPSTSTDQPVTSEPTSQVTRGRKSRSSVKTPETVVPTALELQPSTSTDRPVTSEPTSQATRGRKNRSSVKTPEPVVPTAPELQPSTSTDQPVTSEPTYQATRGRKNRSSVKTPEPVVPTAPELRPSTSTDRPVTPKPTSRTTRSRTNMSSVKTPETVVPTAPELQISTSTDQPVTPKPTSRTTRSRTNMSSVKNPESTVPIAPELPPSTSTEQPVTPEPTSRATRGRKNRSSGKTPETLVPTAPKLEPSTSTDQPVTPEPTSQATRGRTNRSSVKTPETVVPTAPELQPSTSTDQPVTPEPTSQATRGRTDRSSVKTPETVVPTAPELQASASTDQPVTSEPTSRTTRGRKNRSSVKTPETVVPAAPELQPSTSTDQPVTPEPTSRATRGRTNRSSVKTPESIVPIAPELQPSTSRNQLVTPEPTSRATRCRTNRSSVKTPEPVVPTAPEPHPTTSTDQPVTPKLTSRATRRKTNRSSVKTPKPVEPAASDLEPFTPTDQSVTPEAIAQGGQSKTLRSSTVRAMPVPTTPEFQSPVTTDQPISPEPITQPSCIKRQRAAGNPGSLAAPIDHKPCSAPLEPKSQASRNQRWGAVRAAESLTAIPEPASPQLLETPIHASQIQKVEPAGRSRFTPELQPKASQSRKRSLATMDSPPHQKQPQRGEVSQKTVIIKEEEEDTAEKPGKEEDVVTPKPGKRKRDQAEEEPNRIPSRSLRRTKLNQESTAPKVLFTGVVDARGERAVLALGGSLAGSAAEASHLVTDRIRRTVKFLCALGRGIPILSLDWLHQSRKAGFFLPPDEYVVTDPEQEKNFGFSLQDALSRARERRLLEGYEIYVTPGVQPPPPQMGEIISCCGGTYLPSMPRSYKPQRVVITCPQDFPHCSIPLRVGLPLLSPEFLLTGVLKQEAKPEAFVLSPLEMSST
# UniProt Q9HCE5: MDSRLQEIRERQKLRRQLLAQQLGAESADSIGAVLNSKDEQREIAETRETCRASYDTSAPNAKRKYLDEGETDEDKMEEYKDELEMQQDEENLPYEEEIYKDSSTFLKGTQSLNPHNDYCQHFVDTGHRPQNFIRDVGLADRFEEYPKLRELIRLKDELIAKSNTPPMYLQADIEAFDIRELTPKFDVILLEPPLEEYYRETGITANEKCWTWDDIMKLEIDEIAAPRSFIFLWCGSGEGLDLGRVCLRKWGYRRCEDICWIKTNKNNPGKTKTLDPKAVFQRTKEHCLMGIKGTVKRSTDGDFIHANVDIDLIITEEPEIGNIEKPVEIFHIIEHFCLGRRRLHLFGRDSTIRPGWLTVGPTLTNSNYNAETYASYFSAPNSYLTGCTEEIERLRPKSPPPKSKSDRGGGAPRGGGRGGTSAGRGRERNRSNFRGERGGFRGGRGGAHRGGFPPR
# UniProt P25205: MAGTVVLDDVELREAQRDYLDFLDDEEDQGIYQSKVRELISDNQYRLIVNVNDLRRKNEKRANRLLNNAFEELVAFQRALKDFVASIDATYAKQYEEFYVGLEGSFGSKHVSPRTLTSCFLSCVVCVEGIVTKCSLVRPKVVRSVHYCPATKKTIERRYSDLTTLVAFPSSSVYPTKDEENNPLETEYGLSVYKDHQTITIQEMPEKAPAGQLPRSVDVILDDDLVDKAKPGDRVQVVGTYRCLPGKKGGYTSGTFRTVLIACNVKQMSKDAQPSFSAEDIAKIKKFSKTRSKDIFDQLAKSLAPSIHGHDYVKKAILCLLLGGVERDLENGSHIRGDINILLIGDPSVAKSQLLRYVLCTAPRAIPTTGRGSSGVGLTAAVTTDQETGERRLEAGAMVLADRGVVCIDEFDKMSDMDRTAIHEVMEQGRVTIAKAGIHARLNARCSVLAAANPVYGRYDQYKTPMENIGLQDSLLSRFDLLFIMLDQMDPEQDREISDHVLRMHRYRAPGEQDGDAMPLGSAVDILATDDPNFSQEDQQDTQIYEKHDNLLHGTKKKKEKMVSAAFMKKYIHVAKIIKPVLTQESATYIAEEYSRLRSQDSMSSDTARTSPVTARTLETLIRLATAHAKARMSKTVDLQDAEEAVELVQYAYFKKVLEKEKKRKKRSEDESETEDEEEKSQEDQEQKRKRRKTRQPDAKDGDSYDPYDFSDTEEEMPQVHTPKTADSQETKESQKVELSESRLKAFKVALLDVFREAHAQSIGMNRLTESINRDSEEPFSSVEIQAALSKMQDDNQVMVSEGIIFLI
# UniProt Q96HR3: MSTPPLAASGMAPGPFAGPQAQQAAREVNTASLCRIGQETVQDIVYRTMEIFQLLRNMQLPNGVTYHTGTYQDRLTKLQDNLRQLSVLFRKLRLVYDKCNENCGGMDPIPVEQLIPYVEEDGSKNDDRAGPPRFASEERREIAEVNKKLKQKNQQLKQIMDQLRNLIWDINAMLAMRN
# UniProt Q10469: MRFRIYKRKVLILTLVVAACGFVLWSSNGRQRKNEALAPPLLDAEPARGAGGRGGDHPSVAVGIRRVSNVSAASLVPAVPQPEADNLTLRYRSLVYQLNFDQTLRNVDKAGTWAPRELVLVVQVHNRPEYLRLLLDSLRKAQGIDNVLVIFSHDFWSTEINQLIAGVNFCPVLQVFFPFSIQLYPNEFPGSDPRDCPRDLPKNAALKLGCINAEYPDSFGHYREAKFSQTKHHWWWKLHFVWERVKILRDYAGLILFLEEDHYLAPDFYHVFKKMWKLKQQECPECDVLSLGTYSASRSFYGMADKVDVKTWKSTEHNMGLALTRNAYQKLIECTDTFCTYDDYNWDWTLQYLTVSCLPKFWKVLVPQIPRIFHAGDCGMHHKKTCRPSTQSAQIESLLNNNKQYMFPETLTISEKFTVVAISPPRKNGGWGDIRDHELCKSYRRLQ
# UniProt Q14814: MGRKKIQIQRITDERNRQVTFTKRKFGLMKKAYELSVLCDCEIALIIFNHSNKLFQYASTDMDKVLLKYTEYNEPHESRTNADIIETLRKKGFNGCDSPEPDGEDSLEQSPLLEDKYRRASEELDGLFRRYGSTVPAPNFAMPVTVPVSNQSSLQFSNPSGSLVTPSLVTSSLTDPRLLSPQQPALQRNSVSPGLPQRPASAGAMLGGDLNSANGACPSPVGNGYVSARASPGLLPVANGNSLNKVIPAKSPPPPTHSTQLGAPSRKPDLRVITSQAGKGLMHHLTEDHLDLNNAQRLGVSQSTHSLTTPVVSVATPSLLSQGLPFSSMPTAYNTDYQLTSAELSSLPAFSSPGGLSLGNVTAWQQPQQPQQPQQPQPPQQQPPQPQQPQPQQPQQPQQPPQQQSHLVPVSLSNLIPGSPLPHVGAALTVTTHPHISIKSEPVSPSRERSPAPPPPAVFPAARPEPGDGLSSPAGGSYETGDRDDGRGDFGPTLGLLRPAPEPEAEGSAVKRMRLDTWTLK
# UniProt Q9ULC4: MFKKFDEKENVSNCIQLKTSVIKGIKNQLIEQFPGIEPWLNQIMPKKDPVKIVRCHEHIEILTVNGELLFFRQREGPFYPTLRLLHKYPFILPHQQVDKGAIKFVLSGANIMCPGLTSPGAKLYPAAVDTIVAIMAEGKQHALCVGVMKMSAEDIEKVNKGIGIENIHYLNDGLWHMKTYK
# UniProt Q07820, whole entry, looked up: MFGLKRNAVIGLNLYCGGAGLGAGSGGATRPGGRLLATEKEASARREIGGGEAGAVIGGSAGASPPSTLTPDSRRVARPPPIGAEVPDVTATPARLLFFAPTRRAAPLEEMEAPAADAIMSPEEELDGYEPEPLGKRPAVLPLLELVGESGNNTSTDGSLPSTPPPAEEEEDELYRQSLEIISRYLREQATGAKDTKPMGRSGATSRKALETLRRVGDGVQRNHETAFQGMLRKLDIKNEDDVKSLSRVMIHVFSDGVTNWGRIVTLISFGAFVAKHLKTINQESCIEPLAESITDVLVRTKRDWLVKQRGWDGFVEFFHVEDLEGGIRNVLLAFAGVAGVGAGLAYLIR
# UniProt Q7L2J0: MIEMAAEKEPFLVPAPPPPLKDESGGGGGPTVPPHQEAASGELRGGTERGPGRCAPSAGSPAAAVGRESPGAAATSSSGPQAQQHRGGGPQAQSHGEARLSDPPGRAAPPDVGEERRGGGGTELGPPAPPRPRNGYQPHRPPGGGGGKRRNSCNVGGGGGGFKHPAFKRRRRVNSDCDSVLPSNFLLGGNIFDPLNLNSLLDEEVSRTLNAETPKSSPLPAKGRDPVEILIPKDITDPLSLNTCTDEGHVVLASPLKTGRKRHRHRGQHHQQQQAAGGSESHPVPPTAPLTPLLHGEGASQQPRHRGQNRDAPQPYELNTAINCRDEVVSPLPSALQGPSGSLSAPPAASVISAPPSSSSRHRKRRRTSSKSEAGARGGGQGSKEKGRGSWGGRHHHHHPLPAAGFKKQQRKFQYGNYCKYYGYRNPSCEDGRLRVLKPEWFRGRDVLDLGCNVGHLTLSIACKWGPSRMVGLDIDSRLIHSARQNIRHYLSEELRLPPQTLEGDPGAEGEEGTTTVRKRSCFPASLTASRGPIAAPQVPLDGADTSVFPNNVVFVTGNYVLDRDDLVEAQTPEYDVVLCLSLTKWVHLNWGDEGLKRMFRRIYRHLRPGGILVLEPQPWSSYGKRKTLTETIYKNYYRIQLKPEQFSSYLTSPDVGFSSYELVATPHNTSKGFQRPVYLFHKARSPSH
# UniProt P23368: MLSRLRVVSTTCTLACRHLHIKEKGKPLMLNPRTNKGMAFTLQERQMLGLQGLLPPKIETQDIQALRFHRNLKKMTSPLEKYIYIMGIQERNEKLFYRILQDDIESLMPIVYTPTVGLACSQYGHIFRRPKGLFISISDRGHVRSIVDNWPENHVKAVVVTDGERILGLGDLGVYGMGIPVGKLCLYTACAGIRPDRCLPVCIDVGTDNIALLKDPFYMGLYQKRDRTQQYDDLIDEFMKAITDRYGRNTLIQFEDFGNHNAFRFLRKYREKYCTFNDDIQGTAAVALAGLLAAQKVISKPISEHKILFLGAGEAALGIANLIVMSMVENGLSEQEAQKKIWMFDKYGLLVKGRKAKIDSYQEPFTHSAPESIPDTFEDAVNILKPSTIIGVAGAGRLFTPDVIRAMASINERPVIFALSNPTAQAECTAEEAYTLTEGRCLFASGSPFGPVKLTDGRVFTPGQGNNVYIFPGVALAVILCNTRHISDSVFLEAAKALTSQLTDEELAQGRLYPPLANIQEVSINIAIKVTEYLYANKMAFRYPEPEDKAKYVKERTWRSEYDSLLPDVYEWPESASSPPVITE
# UniProt Q9NRN9: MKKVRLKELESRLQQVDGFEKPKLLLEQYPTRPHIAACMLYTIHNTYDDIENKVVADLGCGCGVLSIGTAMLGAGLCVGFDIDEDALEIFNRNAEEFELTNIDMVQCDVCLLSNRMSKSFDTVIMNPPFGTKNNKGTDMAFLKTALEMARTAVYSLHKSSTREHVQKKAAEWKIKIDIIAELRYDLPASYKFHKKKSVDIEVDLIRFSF
# Compound: CC1Cc2ccccc2N1C(=O)C1CCCN(C1)C(=O)CCl (mixture of isomers) [TRIM25 ligand 11 (diastereomer mixture)]
# Assay: probe-labelled cysteine peptide fold change vs DMSO (competition) (log2 fold change); higher = less target engagement (more negative = stronger competition)
# Details: 10 µM; THP-1; incubation time: 4 h
# 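Further: competitive chemoproteomic profiling in live THP-1 cells with an iodoacetamide desthiobiotin (IA-DTB) probe, comparing probe-labelled peptide intensities in compound-treated cells against DMSO-treated controls.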
row,Target,probe-labelled cysteine peptide fold change
1,MDC1_Q14676_128_LRDQELILFADLLCQYHR (UniProt Q14676),-0.0684
2,METAP1_P53582_194+202_SCCTSVNEVICHGIPDR (UniProt P53582),0.285
3,METTL14_Q9HCE5_256+260_CEDICWIK (UniProt Q9HCE5),-0.0382
4,MCM3_P25205_263_TVLIACNVK (UniProt P25205),-0.0626
5,MDC1_Q14676_128_DQELILFADLLCQYHR (UniProt Q14676),-0.0277
6,MCM3AP_O60318_800_GVFCASEAEFQGYNVLLSLNK (UniProt O60318),-0.0195
7,MED18_Q9BUE0_43_GLCDNMEPETFLDHEMVFLLK (UniProt Q9BUE0),0.00704
8,MED30_Q96HR3_34_EVNTASLCR (UniProt Q96HR3),-0.0324
9,MGAT2_Q10469_440_DHELCK (UniProt Q10469),0.242
10,MCM6_Q14566_393_TTGEGTSLRGDINVCIVGDPSTAK (UniProt Q14566),-0.118
11,MELTF_P08582_476_SCHAGFGSPAGWDVPVGALIQR (UniProt P08582),0.0511
12,MEN1_O00255_414_EAASLLEAGEERPGEQSQGTQSQGSALQDPECFAHLLR (UniProt O00255),0.233
13,MEF2D_Q14814_41_AYELSVLCDCEIALIIFNHSNK (UniProt Q14814),-0.0556
14,MDN1_Q9NU22_57_DCTVLVGR (UniProt Q9NU22),-0.0529
15,MCTS1_Q9ULC4_144_QHALCVGVMK (UniProt Q9ULC4),-0.044
16,MEFV_O15553_395_QVQLLFCEDHDEPICLICSLSQEHQGHR (UniProt O15553),-0.11
17,MCL1_Q07820_286_TINQESCIEPLAESITDVLVR (UniProt Q07820),-0.36
18,MCM3AP_O60318_588_AHQFEGDSFDSASEGSEGLGPCVLSLSTLIGTVAETSK (UniProt O60318),-0.101

# Rewritten tab-delimited: part of the list above.
row	Target	probe-labelled cysteine peptide fold change
12	MEN1_O00255_414_EAASLLEAGEERPGEQSQGTQSQGSALQDPECFAHLLR (UniProt O00255)	0.233
13	MEF2D_Q14814_41_AYELSVLCDCEIALIIFNHSNK (UniProt Q14814)	-0.0556

# Next results:

row,Target,probe-labelled cysteine peptide fold change
1,MGAT2_Q10469_386_KTCRPSTQSAQIESLLNNNK (UniProt Q10469),-0.194
2,MCM7_P33993_378_GNINICLMGDPGVAK (UniProt P33993),-0.107
3,METTL13_Q8N6R0_617_SILTPEGVFILNLVCR (UniProt Q8N6R0),-0.0881
4,MCM3_P25205_123_TLTSCFLSCVVCVEGIVTK (UniProt P25205),-0.216
5,MCCC2_Q9HCC0_131_VSGVECMIIANDATVK (UniProt Q9HCC0),0.118
6,MEPCE_Q7L2J0_419_FQYGNYCK (UniProt Q7L2J0),0.0499
7,METTL26_Q96S19_162_CRNPEWGLR (UniProt Q96S19),-0.0108
8,METAP1_P53582_255_KLVQTTYECLMQAIDAVK (UniProt P53582),-0.229
9,ME2_P23368_274_YCTFNDDIQGTAAVALAGLLAAQK (UniProt P23368),0.174
10,MEPCE_Q7L2J0_463_GRDVLDLGCNVGHLTLSIACK (UniProt Q7L2J0),0.0673
11,METTL5_Q9NRN9_107+110_NAEEFELTNIDMVQCDVCLLSNR (UniProt Q9NRN9),-0.067
12,MCMBP_Q9BTE3_636_CVNGNEL (UniProt Q9BTE3),-0.0361
13,MCM5_P33992_197_CNTDQAGRPK (UniProt P33992),0.0518
14,MCM4_P33991_306_TSQLIPEMQEAFFQCQVCAHTTR (UniProt P33991),0.117
15,MCM3_P25205_148_SVHYCPATK (UniProt P25205),0.0515
16,MCM3_P25205_446_CSVLAAANPVYGR (UniProt P25205),-0.0825
17,MCTS1_Q9ULC4_55_CHEHIEILTVNGELLFFR (UniProt Q9ULC4),0.0262
18,MCM3AP_O60318_1945_EQLQLSEATGTCLGER (UniProt O60318),0.0797

# Reference: the supplement of paper PMC12067093, “Discovery and optimisation of a covalent ligand for TRIM25 and its application to targeted protein ubiquitination” (Chemical Science, 2025)
